# “And” between values parts separate entries of the source, which are not always exact repeats. Equal entries are not always repeated.
# Assay: ThT fluorescence quenching control
smiles,measurement,setting,value
Cc1ccc(NC(=O)c2ccc(NC(=O)c3ccc([N+](=O)[O-])c(NCCc4c[nH]c5ccccc45)n3)c(NCC3CCCCC3)n2)c(OCC(=O)O)n1 [NS132],"quenching of the ThT fluorescence signal by the ligand, in words","ThT dye 50 μM, NS132 100 μM, 1×PBS pH 6.5",did not observe any significant quenching
same,"ThT fluorescence relative to Control (ThT), Average","sheet S10, average of 3 trials, Control (ThT) = 1",0.927
same,"ThT fluorescence relative to Control (ThT), Trial 1-3","sheet S10, individual trials, Control (ThT) = 1",0.954 and 0.862 and 0.965

# Reference: paper PMC11061149, “Protein mimetic 2D FAST rescues alpha synuclein aggregation mediated early and post disease Parkinson’s phenotypes” (Nature Communications, 2024)
